Reference: article PMC4915159
These are yes or no findings as the source states them, for the method shown. Binding seen in cells or lysates may run through a third protein. Some entries that bind do so weakly or less than the wild type.

Amino acid sequences for entries named in this document (tags omitted).
UniProt P06730: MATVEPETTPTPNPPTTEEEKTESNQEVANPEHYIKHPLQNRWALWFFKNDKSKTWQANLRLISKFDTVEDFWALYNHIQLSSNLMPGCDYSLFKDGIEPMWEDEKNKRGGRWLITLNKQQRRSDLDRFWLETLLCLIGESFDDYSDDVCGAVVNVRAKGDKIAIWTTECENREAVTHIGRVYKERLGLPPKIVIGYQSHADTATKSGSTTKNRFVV

Target: eukaryotic translation initiation factor 4E (eIF4E) (human (endogenous in MiaPaCa-2)) (UniProt P06730)
Test: pull-down; cap (m7GDP) pull-down: lysates of MiaPaCa-2 cells treated with rapamycin (100 nM) or PP242 (1 uM) for 2, 6 or 24 h; 1 mg protein extract incubated 2 h at 4 °C with m7GDP-agarose beads in 50 mM HEPES-KOH pH 7.5, 150 mM KCl, 1 mM EDTA, 2 mM DTT, 1% Triton X-100; five washes; m7GDP-bound proteins seen by western blotting

B1: eIF4E-binding protein 3 (4E-BP3) (protein, UniProt O60516 1-100)
chain: MSTSTSCPIPGGRDQLPDCYSTTPGGTLYATTPGGTRIIYDRKFLLECKNSPIARTPPCCLPQIPGVTTPPTAPLSKLEELKEQETEEEIPDDAQFEMDI
  binding: binds
